Test results as given in article PMC1087506.
These are yes or no findings as the source states them, for the method shown. Some binding calls cover weakened binding; strength is not graded here.

The chains behind the UniProt entries cited, without tags or fusion partners. Residues count along the entry.
UniProt Q04206: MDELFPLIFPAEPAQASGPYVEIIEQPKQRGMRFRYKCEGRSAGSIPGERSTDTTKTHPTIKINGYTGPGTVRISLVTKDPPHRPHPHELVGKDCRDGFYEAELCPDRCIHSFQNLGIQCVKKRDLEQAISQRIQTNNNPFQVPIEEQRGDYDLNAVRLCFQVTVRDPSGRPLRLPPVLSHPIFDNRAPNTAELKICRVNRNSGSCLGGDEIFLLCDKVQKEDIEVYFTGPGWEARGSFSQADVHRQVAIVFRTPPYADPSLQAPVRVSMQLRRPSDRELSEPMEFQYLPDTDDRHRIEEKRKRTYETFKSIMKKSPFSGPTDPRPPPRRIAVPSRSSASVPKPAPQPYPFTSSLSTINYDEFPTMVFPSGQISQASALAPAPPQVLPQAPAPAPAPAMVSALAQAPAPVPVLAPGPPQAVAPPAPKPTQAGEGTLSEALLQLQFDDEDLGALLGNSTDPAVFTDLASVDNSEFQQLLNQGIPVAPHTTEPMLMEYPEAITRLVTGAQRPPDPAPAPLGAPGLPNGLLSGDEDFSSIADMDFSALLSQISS
UniProt P19838, residues 1-433: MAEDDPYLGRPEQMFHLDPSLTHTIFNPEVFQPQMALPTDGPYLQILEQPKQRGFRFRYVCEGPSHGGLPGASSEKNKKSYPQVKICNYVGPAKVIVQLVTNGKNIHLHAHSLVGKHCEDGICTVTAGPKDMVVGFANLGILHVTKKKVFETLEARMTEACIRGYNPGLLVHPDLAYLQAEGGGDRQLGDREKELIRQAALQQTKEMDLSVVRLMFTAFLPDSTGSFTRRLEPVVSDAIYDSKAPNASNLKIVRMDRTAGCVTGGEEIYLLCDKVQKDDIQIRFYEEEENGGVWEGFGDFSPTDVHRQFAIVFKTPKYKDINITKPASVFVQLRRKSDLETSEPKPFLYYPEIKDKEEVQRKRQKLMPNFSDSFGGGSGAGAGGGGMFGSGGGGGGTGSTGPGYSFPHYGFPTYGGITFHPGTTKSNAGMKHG

Target: NF-κB p65 subunit (human (endogenous in hTBE cells)) (UniProt Q04206)
Assay: native gel or EMSA; supershift: 2.5 μg nuclear extract of hTBE cells (2 hours after TSB or Ps. a. challenge) preincubated 10 minutes with antisera against NF-κB p50 or p65, then 32P-labelled NF-κB consensus oligonucleotide, 20 minutes at room temperature; 10 mM TrisHCl pH 7.9, 50 mM KCl, 1 mM DTT, 0.25 mg/ml BSA, 4% glycerol; 5% non-denaturing gel

NF-κB p50 subunit (from UniProt P19838 1-433)
binding: binds
